Measured values published in the supplement of paper PMC9015667.
Some of the results follow. Single values are uncertain, as repeats are few or missing.

Tests used:
Experiment in all cases: reduction in cell viability relative to untreated/vehicle; higher = more growth inhibition
Settings in all cases: 200 nM; 72 h
M229P = test system: M229P (parental melanoma line)
M229R = test system: M229R (matched melanoma line resistant to BRAF inhibitors)
M238P = test system: M238P (parental melanoma line)
M238R = test system: M238R (matched melanoma line resistant to BRAF inhibitors)
M249P = test system: M249P (parental melanoma line)
M249R = test system: M249R (matched melanoma line resistant to BRAF inhibitors)
UACC62P = test system: UACC62P (parental melanoma line)
UACC62R = test system: UACC62R (matched melanoma line resistant to BRAF inhibitors)

| Compound | reduction in cell viability (M229P) [%] | reduction in cell viability (M229R) [%] | reduction in cell viability (M238P) [%] | reduction in cell viability (M238R) [%] | reduction in cell viability (M249P) [%] | reduction in cell viability (M249R) [%] | reduction in cell viability (UACC62P) [%] | reduction in cell viability (UACC62R) [%] |
| --- | --- | --- | --- | --- | --- | --- | --- | --- |
| CC(C)n1nc(-c2ccc3oc(N)nc3c2)c2c(N)ncnc21 | 72.9 | 64.7 | 64.1 | 64 | 72.3 | 65.5 | 71.2 | 64.9 |
| CCOc1ccc(Cc2cc([C@@H]3O[C@H](CO)[C@@H](O)[C@H](O)[C@H]3O)ccc2Cl)cc1 [Dapagliflozin] | < 0 | 2.36 | < 0 | < 0 | < 0 | < 0 | < 0 | < 0 |
| CC(C)(C(=O)NCC(F)(F)C(F)(F)F)C(=O)N[C@@H]1C(=O)Nc2ccccc2-c2ccccc21 | < 0 | < 0 | < 0 | < 0 | < 0 | < 0 | 1.45 | < 0 |
| CC1=C(/C=C/C(C)=C/C=C/C(C)=C/C(=O)Nc2ccc(O)cc2)C(C)(C)CCC1 [Fenretinide] | < 0 | < 0 | < 0 | < 0 | < 0 | < 0 | < 0 | < 0 |
| CCN1CCN(Cc2ccc(-c3cc4c(N[C@H](C)c5ccccc5)ncnc4[nH]3)cc2)CC1 | < 0 | < 0 | < 0 | < 0 | 3.37 | 3.29 | 3.27 | < 0 |
| N[C@@H](CC(=O)N1CCn2c(nnc2C(F)(F)F)C1)Cc1cc(F)c(F)cc1F [Sitagliptin] | < 0 | < 0 | < 0 | < 0 | < 0 | < 0 | < 0 | < 0 |
| c1cc(OCCN2CCCCC2)cc(-c2n[nH]c3ccc(-c4nnc[nH]4)cc23)c1 | < 0 | < 0 | < 0 | < 0 | < 0 | < 0 | < 0 | < 0 |
| CC(C)(S)[C@@H](N)C(=O)O [Penicillamine] | < 0 | < 0 | < 0 | < 0 | < 0 | < 0 | < 0 | < 0 |
| COc1ccc2cccc(CCNC(C)=O)c2c1 [Agomelatine] | < 0 | < 0 | < 0 | < 0 | < 0 | < 0 | < 0 | < 0 |
| C[C@@H]1CN(Cc2ccc(F)cc2)[C@@H](C)CN1C(=O)c1cc2c(C(=O)C(=O)N(C)C)cn(C)c2cc1Cl [Talmapimod] | < 0 | < 0 | < 0 | < 0 | < 0 | < 0 | < 0 | < 0 |
| C=C1[C@H](CO)[C@@H](O)C[C@@H]1n1cnc2c(=O)[nH]c(N)nc21 [Entecavir] | < 0 | < 0 | < 0 | < 0 | < 0 | < 0 | < 0 | < 0 |
| COc1cc(Cl)cn2c(-c3cccc(NC4CNC4)n3)cnc12 | < 0 | < 0 | < 0 | < 0 | < 0 | < 0 | < 0 | < 0 |
| COCCCC/C(=N\OCCN)c1ccc(C(F)(F)F)cc1 [Fluvoxamine] | < 0 | < 0 | < 0 | < 0 | < 0 | < 0 | < 0 | < 0 |
| CC(C)n1nc(-c2cc3cc(O)ccc3[nH]2)c2c(N)ncnc21 | 6.07 | < 0 | 16.4 | 32.1 | 12.3 | 36.1 | 25.8 | 18.8 |
| O=P(O)(O)C(O)(Cn1ccnc1)P(=O)(O)O [Zoledronic acid monohydrate] | < 0 | < 0 | < 0 | < 0 | < 0 | < 0 | < 0 | < 0 |
| O=C(Nc1nc2ccc(NC(=O)C34CC5CC(CC(C5)C3)C4)cc2s1)c1ccccc1 | < 0 | 4.95 | < 0 | < 0 | < 0 | < 0 | 28.9 | 8.87 |
| COc1ccccc1[C@H](c1cccc2ccccc12)[C@@](C)(C#N)C(=O)N1CCC(c2cccc(C(F)(F)F)c2)CC1 | < 0 | < 0 | < 0 | < 0 | < 0 | < 0 | < 0 | < 0 |
| CCOC(=O)C(C)(C)Oc1ccc(Cl)cc1 [Clofibrate] | < 0 | < 0 | < 0 | < 0 | < 0 | < 0 | < 0 | < 0 |
| Cc1cc(=O)oc2cc(O)ccc12 [4-methylumbelliferone] | < 0 | < 0 | < 0 | < 0 | < 0 | < 0 | < 0 | < 0 |

In a second layout: 2 of the compounds above.
Compound	reduction in cell viability (M229P) [%]	reduction in cell viability (M229R) [%]	reduction in cell viability (M238P) [%]	reduction in cell viability (M238R) [%]	reduction in cell viability (M249P) [%]	reduction in cell viability (M249R) [%]	reduction in cell viability (UACC62P) [%]	reduction in cell viability (UACC62R) [%]
N[C@@H](CC(=O)N1CCn2c(nnc2C(F)(F)F)C1)Cc1cc(F)c(F)cc1F [Sitagliptin]	< 0	< 0	< 0	< 0	< 0	< 0	< 0	< 0
c1cc(OCCN2CCCCC2)cc(-c2n[nH]c3ccc(-c4nnc[nH]4)cc23)c1	< 0	< 0	< 0	< 0	< 0	< 0	< 0	< 0
